Assay results published in patent US20140066324A1, “GENE EXPRESSION SIGNATURE IN SKIN PREDICTS RESPONSE TO MYCOPHENOLATE MOFETIL” (NORTHWESTERN UNIVERSITY, priority 2011, published 2014).

Test system: adult human dermal fibroblasts
Experiment: Cytokine gene expression signatures in cultured adult human dermal fibroblasts
Format: cell-based

Substance | overlap of inducible genes between IL-13 and IL-4 | number of genes of the gene signature
IL-4: pro-fibrotic cytokine IL-4 (NM_000589) | approximately 60% | 
IL-13: pro-fibrotic cytokine IL-13 (NM_002188) | approximately 60% | 490
